Assay [1] has as its target acetylcholine binding protein from Lymnaea stagnalis (Ls-AChBP) (Lymnaea stagnalis) (UniProt P58154). Description: affinity purification with mass spectrometry; only the target purified.
For assay [2] the target is unchanged. The assay is described as above. The source holds these as a separate data set.

By UniProt entry, the sequences of proteins in these tests, tags left out. Residues count along the entry.
UniProt P58154, residues 20-229: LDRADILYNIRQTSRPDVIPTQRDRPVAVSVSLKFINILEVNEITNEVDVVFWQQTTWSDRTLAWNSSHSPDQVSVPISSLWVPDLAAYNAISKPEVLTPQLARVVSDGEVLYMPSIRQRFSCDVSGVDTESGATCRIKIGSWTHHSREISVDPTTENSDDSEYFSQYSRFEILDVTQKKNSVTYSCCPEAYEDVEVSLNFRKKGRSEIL

Read-outs that look alike come from different tables or passages of the source. No constants are given. Whether binding was seen depends on the method and setting. In cells and extracts the contact can be indirect. A yes stands for co-enrichment or nearness to the bait. Other partners may have been found.

“venom nerve growth factor (vNGF) of Naja naja venom (from UniProt P01140 1-116)”: the binding entry in assay [1] is “binds”.

As for “α-δ-bungarotoxin 4 (from UniProt D2N116 3-76)”, in assay [1], the binding result is “binds”.

B1: venom nerve growth factor (vNGF) of Naja kaouthia venom (protein, UniProt P61899 1-116)
chain: EDHPVHNLGEHSVCDSVSAWVTKTTATDIKGNTVTVMENVNLDNKVYKEYFFETKCKNPNPEPSGCRGIDSSHWNSYCTETDTFIKALTMEGNQASWRFIRIETACVCVITKKKGN
Regarding B1, the binding result in assay [2] was “binds”.

For the origin of these results see paper PMC6683245.
